In patent US6723733B2, “Sulfonamide and carbamide derivatives of 6(5H)phenanthridinones and their uses” (Guilford Pharmaceuticals, Inc., priority 2000, dated 2004):

System: male Long-Evans rats
Test: Focal cerebral ischemia (MCA cauterization with temporary bilateral CCA occlusion)
Format: in vivo, rat
Conditions: for PaCO2 / PaO2 / arterial pH: arterial blood 30 minutes after MCA occlusion; for MABP Ischemia: average during occlusion; for relative blood flow in the right parietal cortex, of the baseline: during occlusion, laser Doppler, control 20.8±7.7%; for MABP Steady State: just prior to occlusion

## O=C1NCCc2c(OCCCCN3CCCCC3)cccc21 [DPQ, 3,4-dihydro-5-[4-(1-piperidinyl)-butoxy]-1(2H)-isoquinolinone]
5 mg/kg-treated group
  PaCO2: 38.0 ± 2.8 mm Hg
  PaO2: 126 ± 20 mm Hg
  arterial pH: 7.36 ± 0.02
  MABP Ischemia: 91 ± 12 mm Hg
  relative blood flow in the right parietal cortex, of the baseline: 18.7±7.4%
  MABP Steady State: 78 ± 5 mm Hg
10 mg/kg-treated group
  PaCO2: 39.3 ± 5.2 mm Hg
  PaO2: 125 ± 16 mm Hg
  arterial pH: 7.34 ± 0.03
  MABP Ischemia: 90 ± 14 mm Hg
  relative blood flow in the right parietal cortex, of the baseline: 21.4±7.7%
  MABP Steady State: 80 ± 9 mm Hg
20 mg/kg-treated group
  PaCO2: 41.3 ± 2.8 mm Hg
  PaO2: 122 ± 14 mm Hg
  arterial pH: 7.35 ± 0.23
  MABP Ischemia: 91 ± 12 mm Hg
  MABP Steady State: 79 ± 10 mm Hg
40 mg/kg-treated group
  PaCO2: 39.5 ± 4.7 mm Hg
  PaO2: 137 ± 17 mm Hg
  arterial pH: 7.33 ± 0.24
  MABP Ischemia: 88 ± 12 mm Hg
  relative blood flow in the right parietal cortex, of the baseline: 19.3±11.2%
  MABP Steady State: 78 ± 4 mm Hg
